Values of other authors in patent US12465564B2, “Oral and nasal compositions and methods of treatment” (AQUESTIVE THERAPEUTICS, INC., priority 2021, dated 2025).

Tests used:
[1] = oral, following a moderate fat meal, per the Valium label
[2] = tested on: seizure threshold; conditions: rats; estimated threshold

Compound | reduction in AUC [1] [%] | reduction in Cmax [1] [%] | plasma diazepam concentration associated with an elevation in seizure threshold [2] [ng/mL]
CN1C(=O)CN=C(c2ccccc2)c2cc(Cl)ccc21 [Valium, diazepam] | 27 | 20 | 
CN1C(=O)CN=C(c2ccccc2)c2cc(Cl)ccc21 [diazepam] |  |  | ~70
